This is an account of results in article PMC12152124.

This assay deals with T1, Tda1-3HA (C-terminally 3xHA-tagged Tda1) (S. cerevisiae) (UniProt Q03533).
T1 sequence: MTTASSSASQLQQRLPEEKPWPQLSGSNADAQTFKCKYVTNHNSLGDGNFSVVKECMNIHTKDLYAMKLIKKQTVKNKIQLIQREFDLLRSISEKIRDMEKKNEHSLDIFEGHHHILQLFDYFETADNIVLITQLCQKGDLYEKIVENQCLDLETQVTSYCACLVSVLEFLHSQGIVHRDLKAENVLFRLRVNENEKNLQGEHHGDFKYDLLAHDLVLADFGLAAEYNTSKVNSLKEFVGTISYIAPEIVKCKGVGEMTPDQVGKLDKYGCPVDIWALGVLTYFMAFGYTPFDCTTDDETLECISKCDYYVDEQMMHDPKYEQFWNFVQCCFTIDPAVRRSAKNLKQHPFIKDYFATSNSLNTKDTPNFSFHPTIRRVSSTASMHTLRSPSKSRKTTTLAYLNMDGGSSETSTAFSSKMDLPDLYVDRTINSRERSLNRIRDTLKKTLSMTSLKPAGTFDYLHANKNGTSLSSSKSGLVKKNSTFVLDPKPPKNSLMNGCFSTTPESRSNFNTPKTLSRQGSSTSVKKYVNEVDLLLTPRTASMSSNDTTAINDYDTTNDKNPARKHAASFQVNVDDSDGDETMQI
As to the kind of experiment: co-IP; yeast lysates (cells in YPD, or 30 min more in YP with 0.05% glucose); IP with anti-HA antibody (12CA5) and Ab-Capcher MAG2 beads, 4 °C; 40 mM Tris-HCl pH 7.5, 150 mM NaCl, 0.5% Triton X-100; immunoblot with anti-HA and anti-FLAG. (In general: A western blot detects proteins with antibodies after separation by electrophoresis.)

No constants are given. Whether binding was seen depends on the method and setting. In cells and extracts the contact can be indirect. Some results given as binding are weak or reduced against the parent protein; the word gives no strength. Where a sequence is shown, tags or fusion partners need not be part of it.

B1: Rim11-5FLAG (enzyme, UniProt P38615 1-370)
chain: MNIQSNNSPNLSNNIVSKQVYYAHPPPTIDPNDPVQISFPTTEVVGHGSFGVVFATVIQETNEKVAIKKVLQDKRFKNRELEIMKMLSHINIIDLKYFFYERDSQDEIYLNLILEYMPQSLYQRLRHFVHQRTPMSRLEIKYYMFQLFKSLNYLHHFANVCHRDIKPQNLLVDPETWSLKLCDFGSAKQLKPTEPNVSYICSRYYRAPELIFGATNYTNQIDIWSSGCVMAELLLGQPMFPGESGIDQLVEIIKILGTPSKQEICSMNPNYMEHKFPQIKPIPLSRVFKKEDDQTVEFLADVLKYDPLERFNALQCLCSPYFDELKLDDGKINQITTDLKLLEFDENVELGHLSPDELSSVKKKLYPKSK
B1: the binding entry was “binds”.

B2: Snf1-5FLAG (enzyme, UniProt P06782 1-633)
chain: MSSNNNTNTAPANANSSHHHHHHHHHHHHHGHGGSNSTLNNPKSSLADGAHIGNYQIVKTLGEGSFGKVKLAYHTTTGQKVALKIINKKVLAKSDMQGRIEREISYLRLLRHPHIIKLYDVIKSKDEIIMVIEYAGNELFDYIVQRDKMSEQEARRFFQQIISAVEYCHRHKIVHRDLKPENLLLDEHLNVKIADFGLSNIMTDGNFLKTSCGSPNYAAPEVISGKLYAGPEVDVWSCGVILYVMLCRRLPFDDESIPVLFKNISNGVYTLPKFLSPGAAGLIKRMLIVNPLNRISIHEIMQDDWFKVDLPEYLLPPDLKPHPEEENENNDSKKDGSSPDNDEIDDNLVNILSSTMGYEKDEIYESLESSEDTPAFNEIRDAYMLIKENKSLIKDMKANKSVSDELDTFLSQSPPTFQQQSKSHQKSQVDHETAKQHARRMASAITQQRTYHQSPFMDQYKEEDSTVSILPTSLPQIHRANMLAQGSPAASKISPLVTKKSKTRWHFGIRSRSYPLDVMGEIYIALKNLGAEWAKPSEEDLWTIKLRWKYDIGNKTNTNEKIPDLMKMVIQLFQIETNNYLVDFKFDGWESSYGDDTTVSNISEDEMSTFSAYPFLHLTTKLIMELAVNSQSN
Take B2: the binding entry was “binds”.
